Literature values in paper PMC11944986, “Parenteral Nanoemulsion for Optimized Delivery of GL-II-73 to the Brain—Comparative In Vitro Blood–Brain Barrier and In Vivo Neuropharmacokinetic Evaluation” (Pharmaceutics, 2025).

Tested on: in vitro model of the blood-brain barrier
Settings: cited from earlier work

**Q.** With `CN1C(=O)CN=C(c2ccccc2)c2cc(Cl)ccc21` [diazepam] as the compound, how does the Pe value read?
**A.** 70 ×10⁻⁶ cm/s
